We go through one substance from article PMC6279836, “The LPG1x family from Leishmania major is constituted of rare eukaryotic galactofuranosyltransferases with unprecedented catalytic properties” (Scientific Reports, 2018).

Protein sequences, listed by entry. Tags and fused reporters are not part of them.
UniProt P0A6F5: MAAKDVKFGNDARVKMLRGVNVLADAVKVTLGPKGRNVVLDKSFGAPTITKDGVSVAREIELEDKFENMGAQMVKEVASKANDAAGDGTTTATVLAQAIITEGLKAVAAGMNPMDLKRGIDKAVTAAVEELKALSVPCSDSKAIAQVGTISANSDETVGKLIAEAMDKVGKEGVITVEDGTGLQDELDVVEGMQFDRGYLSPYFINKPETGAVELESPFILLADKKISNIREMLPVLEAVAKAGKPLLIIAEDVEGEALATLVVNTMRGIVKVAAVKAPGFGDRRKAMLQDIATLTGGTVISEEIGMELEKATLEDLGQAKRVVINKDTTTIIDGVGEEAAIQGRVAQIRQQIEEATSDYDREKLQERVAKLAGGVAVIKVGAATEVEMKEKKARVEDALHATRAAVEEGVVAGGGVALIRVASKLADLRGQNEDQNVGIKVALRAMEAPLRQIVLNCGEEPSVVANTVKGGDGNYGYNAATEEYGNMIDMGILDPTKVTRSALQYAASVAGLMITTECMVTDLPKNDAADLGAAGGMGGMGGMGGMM

The target in this assay is T1, His-tagged recombinant LPG1 without the transmembrane domain (Leishmania major) (UniProt Q9NC61).
T1 sequence: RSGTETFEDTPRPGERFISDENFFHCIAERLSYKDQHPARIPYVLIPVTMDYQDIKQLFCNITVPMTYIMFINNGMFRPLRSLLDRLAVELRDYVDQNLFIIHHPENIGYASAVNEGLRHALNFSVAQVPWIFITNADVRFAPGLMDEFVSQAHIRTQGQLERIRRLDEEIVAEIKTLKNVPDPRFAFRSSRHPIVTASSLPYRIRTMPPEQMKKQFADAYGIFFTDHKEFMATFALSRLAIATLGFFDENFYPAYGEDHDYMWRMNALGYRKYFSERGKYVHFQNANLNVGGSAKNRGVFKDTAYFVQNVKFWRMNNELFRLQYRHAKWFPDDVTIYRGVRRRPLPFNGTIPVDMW
As to the kind of experiment: affinity purification with mass spectrometry; His-tagged LPG1x proteins over-expressed from pET vectors in various E. coli strains and purified; GroEL stayed with them and was identified by HRMS; literature protocols to remove it failed.

Results are given in words; binding and its absence hold for the method and conditions named. Binding seen in cells or lysates may run through a third protein. These calls come from enrichment with a bait or labelling near it, and not all partners need be listed. Sequences can lack the tags named with a protein.

As to “GroEL chaperonin (from UniProt P0A6F5 1-548)”, the binding result is listed as “binds”.
